# The other results are listed elsewhere or left out. The calls rarely recur for the same compound in another form.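 Kinases were expressed as nanoluciferase fusions in K562 cells and luminescence was read every 4 h between 2 and 18 h as percent of control, DMSO set to 100% and a positive control to 0%. A time point counts as decreased when the signal drops significantly (2 sigma). The hit call is the authors' own, does not follow from the count of time points alone, and its rule is not shown.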
# Amino acid sequences for entries named in this document (tags omitted). A change or cut given only in a name is not applied to a line headed by its entry.
# UniProt P29317, whole entry: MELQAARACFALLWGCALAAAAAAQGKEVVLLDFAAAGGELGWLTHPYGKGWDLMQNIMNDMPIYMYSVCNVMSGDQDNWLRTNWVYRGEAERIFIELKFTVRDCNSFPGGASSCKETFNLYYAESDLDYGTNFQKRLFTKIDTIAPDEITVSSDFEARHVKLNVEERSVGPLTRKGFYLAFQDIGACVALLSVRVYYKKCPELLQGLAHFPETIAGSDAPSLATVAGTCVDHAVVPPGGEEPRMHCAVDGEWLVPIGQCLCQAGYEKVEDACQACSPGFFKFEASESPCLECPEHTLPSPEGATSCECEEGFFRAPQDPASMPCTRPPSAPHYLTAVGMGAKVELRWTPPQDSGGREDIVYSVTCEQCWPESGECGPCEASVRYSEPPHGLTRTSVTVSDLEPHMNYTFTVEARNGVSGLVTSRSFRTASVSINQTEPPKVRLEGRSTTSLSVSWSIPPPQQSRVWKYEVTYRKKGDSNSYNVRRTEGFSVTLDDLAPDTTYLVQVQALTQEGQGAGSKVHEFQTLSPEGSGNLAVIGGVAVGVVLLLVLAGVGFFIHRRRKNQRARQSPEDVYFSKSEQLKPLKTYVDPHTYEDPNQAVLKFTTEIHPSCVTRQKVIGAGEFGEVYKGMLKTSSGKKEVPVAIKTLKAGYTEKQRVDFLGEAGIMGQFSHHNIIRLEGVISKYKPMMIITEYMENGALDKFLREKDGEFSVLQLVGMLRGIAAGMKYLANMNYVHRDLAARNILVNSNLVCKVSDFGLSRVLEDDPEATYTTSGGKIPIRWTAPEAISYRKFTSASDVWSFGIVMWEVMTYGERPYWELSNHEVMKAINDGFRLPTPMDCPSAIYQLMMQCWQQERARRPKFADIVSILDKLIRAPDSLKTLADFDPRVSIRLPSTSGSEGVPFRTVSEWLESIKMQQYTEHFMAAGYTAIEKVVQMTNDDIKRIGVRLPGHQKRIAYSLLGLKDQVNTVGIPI
# UniProt P21860, whole entry: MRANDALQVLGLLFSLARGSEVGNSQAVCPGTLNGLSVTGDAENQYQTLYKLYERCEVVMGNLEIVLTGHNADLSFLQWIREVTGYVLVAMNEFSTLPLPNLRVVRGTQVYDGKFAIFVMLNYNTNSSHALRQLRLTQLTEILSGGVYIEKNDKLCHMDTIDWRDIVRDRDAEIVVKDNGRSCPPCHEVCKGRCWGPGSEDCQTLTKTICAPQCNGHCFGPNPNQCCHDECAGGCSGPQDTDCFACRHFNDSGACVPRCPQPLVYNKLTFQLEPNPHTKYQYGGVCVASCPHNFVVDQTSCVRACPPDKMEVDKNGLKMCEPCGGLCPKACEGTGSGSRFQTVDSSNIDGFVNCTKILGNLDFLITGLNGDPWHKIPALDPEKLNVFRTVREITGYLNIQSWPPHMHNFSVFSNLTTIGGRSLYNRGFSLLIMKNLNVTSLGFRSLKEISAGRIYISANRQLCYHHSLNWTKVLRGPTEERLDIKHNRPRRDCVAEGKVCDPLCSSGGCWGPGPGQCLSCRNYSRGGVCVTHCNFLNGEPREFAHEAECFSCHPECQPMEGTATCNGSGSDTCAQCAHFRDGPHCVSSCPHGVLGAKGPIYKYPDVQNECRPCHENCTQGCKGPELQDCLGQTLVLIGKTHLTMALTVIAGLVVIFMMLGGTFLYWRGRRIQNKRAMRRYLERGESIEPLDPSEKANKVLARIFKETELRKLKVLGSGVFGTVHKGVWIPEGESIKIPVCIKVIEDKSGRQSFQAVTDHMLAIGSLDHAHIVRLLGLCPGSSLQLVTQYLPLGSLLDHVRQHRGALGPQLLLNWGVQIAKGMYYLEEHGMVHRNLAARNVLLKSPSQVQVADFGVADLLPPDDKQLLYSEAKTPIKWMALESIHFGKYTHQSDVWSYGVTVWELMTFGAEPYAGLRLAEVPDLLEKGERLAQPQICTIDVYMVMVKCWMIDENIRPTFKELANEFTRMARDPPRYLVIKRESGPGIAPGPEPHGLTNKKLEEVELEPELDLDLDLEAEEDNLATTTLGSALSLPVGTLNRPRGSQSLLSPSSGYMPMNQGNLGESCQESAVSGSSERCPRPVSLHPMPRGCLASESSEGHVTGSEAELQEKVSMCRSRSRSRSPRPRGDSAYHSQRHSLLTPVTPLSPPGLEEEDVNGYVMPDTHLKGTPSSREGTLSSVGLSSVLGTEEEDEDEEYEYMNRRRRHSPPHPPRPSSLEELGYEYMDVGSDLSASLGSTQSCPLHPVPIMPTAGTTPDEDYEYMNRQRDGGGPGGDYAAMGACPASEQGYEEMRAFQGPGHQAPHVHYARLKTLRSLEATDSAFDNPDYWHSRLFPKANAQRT
# UniProt Q15303, whole entry R711C: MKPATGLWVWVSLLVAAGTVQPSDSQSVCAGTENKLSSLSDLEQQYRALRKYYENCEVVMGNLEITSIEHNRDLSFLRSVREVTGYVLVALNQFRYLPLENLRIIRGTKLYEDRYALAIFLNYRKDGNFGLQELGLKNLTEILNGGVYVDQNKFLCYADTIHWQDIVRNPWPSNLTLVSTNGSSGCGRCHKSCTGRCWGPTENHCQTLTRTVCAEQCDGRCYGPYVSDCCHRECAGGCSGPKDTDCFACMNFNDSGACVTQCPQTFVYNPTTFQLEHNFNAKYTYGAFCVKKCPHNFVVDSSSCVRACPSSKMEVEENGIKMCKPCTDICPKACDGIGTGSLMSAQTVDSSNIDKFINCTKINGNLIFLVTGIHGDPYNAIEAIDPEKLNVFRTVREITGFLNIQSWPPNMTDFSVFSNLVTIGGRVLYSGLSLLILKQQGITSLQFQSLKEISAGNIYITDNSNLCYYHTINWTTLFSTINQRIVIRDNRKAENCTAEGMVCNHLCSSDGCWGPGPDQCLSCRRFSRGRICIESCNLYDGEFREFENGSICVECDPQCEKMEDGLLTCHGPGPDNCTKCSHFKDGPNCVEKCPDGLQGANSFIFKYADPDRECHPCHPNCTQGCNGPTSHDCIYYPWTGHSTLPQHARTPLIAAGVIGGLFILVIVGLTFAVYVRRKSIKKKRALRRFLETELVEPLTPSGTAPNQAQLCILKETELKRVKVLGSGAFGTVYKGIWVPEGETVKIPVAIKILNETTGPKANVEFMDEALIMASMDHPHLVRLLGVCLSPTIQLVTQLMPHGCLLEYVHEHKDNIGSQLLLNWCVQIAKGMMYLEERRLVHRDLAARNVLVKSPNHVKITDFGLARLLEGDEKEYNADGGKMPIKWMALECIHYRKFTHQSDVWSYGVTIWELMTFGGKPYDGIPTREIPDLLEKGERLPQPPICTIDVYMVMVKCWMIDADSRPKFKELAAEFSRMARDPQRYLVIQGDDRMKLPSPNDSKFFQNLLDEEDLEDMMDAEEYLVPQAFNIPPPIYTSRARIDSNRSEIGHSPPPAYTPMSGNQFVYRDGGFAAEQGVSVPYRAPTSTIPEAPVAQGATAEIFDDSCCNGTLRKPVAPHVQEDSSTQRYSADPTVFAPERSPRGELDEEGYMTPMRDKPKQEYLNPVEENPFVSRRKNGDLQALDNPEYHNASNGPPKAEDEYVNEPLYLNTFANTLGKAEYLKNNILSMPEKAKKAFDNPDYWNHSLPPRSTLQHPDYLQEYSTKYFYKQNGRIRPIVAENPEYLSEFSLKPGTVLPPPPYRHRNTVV
# UniProt O75460: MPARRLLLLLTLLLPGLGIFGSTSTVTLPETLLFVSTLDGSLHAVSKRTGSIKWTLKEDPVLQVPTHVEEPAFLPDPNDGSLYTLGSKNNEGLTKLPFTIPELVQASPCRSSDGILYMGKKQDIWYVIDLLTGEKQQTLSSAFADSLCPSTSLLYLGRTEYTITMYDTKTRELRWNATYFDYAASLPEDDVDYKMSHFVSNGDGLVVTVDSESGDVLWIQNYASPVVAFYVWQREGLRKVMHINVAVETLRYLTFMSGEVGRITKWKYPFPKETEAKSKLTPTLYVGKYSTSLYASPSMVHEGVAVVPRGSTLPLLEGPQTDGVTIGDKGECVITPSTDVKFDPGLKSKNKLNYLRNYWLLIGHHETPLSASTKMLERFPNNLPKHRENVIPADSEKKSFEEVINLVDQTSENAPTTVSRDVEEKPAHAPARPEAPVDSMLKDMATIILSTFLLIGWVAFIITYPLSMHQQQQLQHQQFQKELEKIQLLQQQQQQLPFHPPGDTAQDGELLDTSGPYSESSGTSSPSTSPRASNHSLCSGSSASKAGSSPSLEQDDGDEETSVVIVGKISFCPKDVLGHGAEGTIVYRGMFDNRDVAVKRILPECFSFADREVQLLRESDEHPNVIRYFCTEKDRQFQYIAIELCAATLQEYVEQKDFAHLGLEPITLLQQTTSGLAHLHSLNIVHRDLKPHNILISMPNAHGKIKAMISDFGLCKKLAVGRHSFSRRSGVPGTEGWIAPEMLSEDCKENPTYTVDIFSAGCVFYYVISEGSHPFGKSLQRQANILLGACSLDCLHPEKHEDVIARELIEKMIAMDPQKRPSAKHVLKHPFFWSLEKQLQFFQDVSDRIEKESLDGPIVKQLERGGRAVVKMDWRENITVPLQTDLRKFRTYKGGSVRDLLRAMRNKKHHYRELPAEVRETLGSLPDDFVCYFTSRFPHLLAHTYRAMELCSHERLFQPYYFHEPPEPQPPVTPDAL
# UniProt P21802, whole entry, looked up: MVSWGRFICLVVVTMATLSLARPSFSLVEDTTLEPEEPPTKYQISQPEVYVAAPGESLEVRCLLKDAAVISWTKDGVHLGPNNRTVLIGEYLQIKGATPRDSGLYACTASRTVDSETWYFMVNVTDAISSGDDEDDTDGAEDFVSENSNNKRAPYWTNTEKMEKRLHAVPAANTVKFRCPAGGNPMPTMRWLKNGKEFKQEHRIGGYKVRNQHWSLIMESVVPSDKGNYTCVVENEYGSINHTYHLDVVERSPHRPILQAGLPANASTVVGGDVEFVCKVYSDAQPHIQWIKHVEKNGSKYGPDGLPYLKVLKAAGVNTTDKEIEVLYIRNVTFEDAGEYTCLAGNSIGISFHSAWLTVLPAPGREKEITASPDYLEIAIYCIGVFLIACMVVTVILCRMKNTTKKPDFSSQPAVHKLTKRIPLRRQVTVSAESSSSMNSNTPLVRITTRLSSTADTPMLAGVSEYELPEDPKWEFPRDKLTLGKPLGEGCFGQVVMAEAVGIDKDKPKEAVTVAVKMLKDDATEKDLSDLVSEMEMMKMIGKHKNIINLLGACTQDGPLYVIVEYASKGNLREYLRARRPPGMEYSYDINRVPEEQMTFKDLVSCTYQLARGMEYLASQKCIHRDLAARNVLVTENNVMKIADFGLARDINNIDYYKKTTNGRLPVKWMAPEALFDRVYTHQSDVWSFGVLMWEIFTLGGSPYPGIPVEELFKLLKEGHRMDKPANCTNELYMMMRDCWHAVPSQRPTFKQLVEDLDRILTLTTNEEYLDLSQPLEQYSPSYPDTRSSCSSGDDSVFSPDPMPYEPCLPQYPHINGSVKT
# UniProt P22607, whole entry, looked up: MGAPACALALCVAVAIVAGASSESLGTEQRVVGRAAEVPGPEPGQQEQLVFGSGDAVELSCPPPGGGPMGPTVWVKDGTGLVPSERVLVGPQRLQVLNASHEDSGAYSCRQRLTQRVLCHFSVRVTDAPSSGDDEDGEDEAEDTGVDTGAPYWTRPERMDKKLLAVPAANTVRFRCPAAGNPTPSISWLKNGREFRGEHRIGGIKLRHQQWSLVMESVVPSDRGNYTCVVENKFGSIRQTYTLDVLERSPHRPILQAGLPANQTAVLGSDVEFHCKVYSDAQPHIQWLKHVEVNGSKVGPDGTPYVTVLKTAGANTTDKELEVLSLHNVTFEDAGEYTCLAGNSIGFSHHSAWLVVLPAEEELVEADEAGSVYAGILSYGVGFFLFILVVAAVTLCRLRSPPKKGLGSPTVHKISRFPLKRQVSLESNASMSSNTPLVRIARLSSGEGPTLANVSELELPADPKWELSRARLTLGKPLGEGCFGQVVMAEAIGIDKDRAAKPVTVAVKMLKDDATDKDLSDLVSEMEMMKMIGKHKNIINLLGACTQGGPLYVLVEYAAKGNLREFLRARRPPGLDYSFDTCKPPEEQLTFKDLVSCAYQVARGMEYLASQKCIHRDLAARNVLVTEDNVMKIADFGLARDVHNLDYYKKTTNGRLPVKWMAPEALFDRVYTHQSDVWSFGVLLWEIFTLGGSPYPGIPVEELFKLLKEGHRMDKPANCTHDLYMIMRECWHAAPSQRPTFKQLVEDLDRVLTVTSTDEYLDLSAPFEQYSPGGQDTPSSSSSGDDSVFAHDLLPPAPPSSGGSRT
# Tests used:
# Experiment in all cases: number of time points (of 5) at which kinase-Nluc abundance scored as decreased, DMSO-normalised (count); higher = more persistent destabilization
# Conditions in all cases: K562; 2-18 h
# EGFR_L861Q = EGFR_L861Q (UniProt P00533)
# EGFR_T790M = EGFR_T790M (UniProt P00533)
# EPHA2 = EPHA2 (UniProt P29317)
# ERBB3 = ERBB3 (UniProt P21860)
# [1] = molecular target: ERBB4_R711C (clone: ERBB4_mut) (UniProt Q15303)
# ERN1 = ERN1 (UniProt O75460)
# FGFR1 = FGFR1 (UniProt P11362)
# FGFR2 = FGFR2 (UniProt P21802)
# FGFR3 = FGFR3 (UniProt P22607)
# FGR = FGR (UniProt P09769)
SMILES,number of time points (EGFR_L861Q),number of time points (EGFR_T790M),number of time points (EPHA2),number of time points (ERBB3),number of time points [1],number of time points (ERN1),number of time points (FGFR1),number of time points (FGFR2),number of time points (FGFR3),number of time points (FGR)
CCc1nc(C(N)=O)c(Nc2ccc(N3CCC(N4CCN(C)CC4)CC3)c(OC)c2)nc1NC1CCC(OC)CC1 (stereo not given) [EML4-ALK kinase inhibitor 1] (2.5 µM),0,0,1,0,0,0,0,0,0,0
C[C@H](Nc1ccc2c(c1)OCCn1cc(N3C(=O)OC[C@H]3C(F)F)nc1-2)C(N)=O (10 µM),0,0,0,0,0,0,0,0,0,0
C[C@@H](Nc1cc(F)cc(F)c1)c1cc(C(=O)N(C)C)cc2c(=O)cc(N3CCOCC3)oc12 (10 µM),0,0,0,0,0,0,0,1,0,0
C[C@@H]1CN(Cc2cn[nH]c2-c2ccc(C#N)cc2)CCN1c1ccc(C(F)(F)F)cn1 (2.5 µM),0,0,0,0,0,0,0,0,0,0
CC[C@@H]1CN(C(=O)NCC(F)(F)F)C[C@@H]1c1cnc2cnc3[nH]ccc3n12 [Upadacitinib] (10 µM),0,0,0,0,0,0,0,0,0,0
CNC[C@@H](NC(=O)c1ccc(-c2nc([C@H]3CC[C@H](O)[C@@H](F)C3)cnc2N)cc1F)c1cc(F)cc(Br)c1 [Rineterkib] (10 µM),0,0,0,0,0,0,0,0,0,0
CC(C)n1cnnc1-c1cccc(NC(=O)c2cc3ccc(F)cc3[nH]2)n1 (2.5 µM),4,1,0,3,3,1,3,3,3,0
CC(C)(O)c1cc2nc(-c3cnc(N)nc3)nc(N3CCOCC3)c2s1 (2.5 µM),2,0,0,0,2,1,2,4,4,2
O=C(Nc1nc2cccc(-c3ccc(CN4CCS(=O)(=O)CC4)cc3)n2n1)C1CC1 [Filgotinib] (2.5 µM),0,0,0,0,0,0,0,0,0,0
CC(C)=C/C=C1\O[C@@H]2CC(C)=CC(=O)[C@@H]2[C@]1(C)O [Bisabolangelone] (10 µM),0,0,0,0,0,0,0,0,0,0
O=c1sn(-c2cccc3ccccc23)c(=O)n1Cc1ccccc1 [Tideglusib] (10 µM),0,0,0,0,0,0,0,0,0,0
COc1cc2nccc(Oc3ccc(NC(=O)Nc4ccc(F)cc4F)c(F)c3)c2cc1OC (10 µM),0,0,0,0,0,0,1,1,0,0
O=C1c2c(O)cc(O)cc2O[C@H](c2cc(O)c(O)c(O)c2)[C@H]1O [Dihydromyricetin] (10 µM),0,0,0,0,0,0,0,0,0,0
C=CC(=O)N1CCC[C@@H](n2c(=O)n(-c3ccc(Oc4ccccc4)cc3)c3c(N)nccc32)C1 [Tolebrutinib] (10 µM),0,0,0,0,0,0,0,0,0,0
O=c1cc(-c2ccc(O)cc2)oc2cc(O)c([C@@H]3O[C@H](CO)[C@@H](O)[C@H](O)[C@H]3O)c(O)c12 [Isovitexin] (10 µM),0,0,0,0,0,0,0,0,0,0
COc1ccc(C(=O)c2cn(C(C)C)c3ncnc(N)c23)cc1NC(=O)Nc1ccc(Cl)cc1Cl (10 µM),0,0,0,0,0,0,4,0,0,0
COc1ccc(C2CC(c3ccc(Cl)cc3)=NN2c2nc(-c3ccncc3)cs2)cc1 (stereo not given) [mTOR inhibitor-8] (10 µM),0,0,0,0,0,0,0,0,0,0
O=S(=O)(c1cccc2c(Cl)cccc12)N1CCCNCC1 (10 µM),0,0,0,0,0,0,0,0,0,0

# Single records, from the list above. Values in the order: number of time points (EGFR_L861Q) | number of time points (EGFR_T790M) | number of time points (EPHA2) | number of time points (ERBB3) | number of time points [1] | number of time points (ERN1) | number of time points (FGFR1) | number of time points (FGFR2) | number of time points (FGFR3) | number of time points (FGR)
# CNC[C@@H](NC(=O)c1ccc(-c2nc([C@H]3CC[C@H](O)[C@@H](F)C3)cnc2N)cc1F)c1cc(F)cc(Br)c1 [Rineterkib] (10 µM) in the list: 0 | 0 | 0 | 0 | 0 | 0 | 0 | 0 | 0 | 0
# C[C@H](Nc1ccc2c(c1)OCCn1cc(N3C(=O)OC[C@H]3C(F)F)nc1-2)C(N)=O (10 µM) in the list: 0 | 0 | 0 | 0 | 0 | 0 | 0 | 0 | 0 | 0

# Reference: the supplement of paper PMC12823440, “Inhibitors supercharge kinase turnover through native proteolytic circuits” (Nature, 2025)
